Earlier results in patent US20210315248A1, “SYSTEM AND METHOD FOR HOVENIA DULCIS EXTRACTION” (82 Labs Inc., priority 2020, published 2021).
At least one structure is not confirmed: it was looked up by name or label, or the drawing left a doubt.

Key:
[1] = guest molecule with β-cyclodextrin
[2] = guest molecule with γ-cyclodextrin

Compound: [Xe] [Xenon]
- ability to form inclusion complexes with β-CD [1]: −
- ability to form inclusion complexes with γ-CD [2]: −
